# Source: PubChem BioAssay AID1347423 (Functional Genomics Laboratory (NCATS/FGL), 2020)
# About 210 (0.4%) of roughly 52,000 sequences were called active.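 The calls were made as follows: active = gene whose silencing raises cell survival under the drug, median off-target-corrected z-score across its silencing RNAs 2 or more; inactive = the rest.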 This is one part of the list.
# Assay: Resistance to Poly (ADP-Ribose) Polymerase inhibitor: Gene Identification via Genome-wide siRNA Screen
# Conditions: mouse BRCA2 R2336H ES cells, olaparib, CellTiter-Glo viability; hits give high values
# Procedure, shortened: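 Mouse BRCA2 R2336H ES cells were reverse-transfected with siRNA (20 nM final), treated at 48 h with 500 nM olaparib, and read by CellTiter-Glo after 72 h. Scores: MAD-based z per siRNA, median per gene, seed off-target correction.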
row,Sequence,z-score
1,GGACAUCAGUUAUCACGCATT against Sh3rf2,inactive: 0.713
2,GGGAGUGUUAAAGAGAGUGTT against A330049M08Rik,inactive: -0.841
3,GCAGCCAUACAGCUUAUAUTT against Cyb561d2,inactive: -2.21
4,GGAACCAUCUUCAACCAACTT against 6820428D13,inactive: 0.24
5,GGCAGAAACGUGGACUAAATT against Mmp12,inactive: 1.76
6,GGGACUUACAGAUUACAGUTT against Izumo1,inactive: 0.281
7,GGGAGGAACAAGUUGGACCTT against Npl,inactive: -0.627
8,GGGUCAAAUCUGACUGCAUTT against Tieg1,inactive: 0.199
9,CGUAGAAACAGUGCAGCAGTT against C730048E16Rik,inactive: 2.37
10,GGUCUUACGUAAACCUGCCTT against Olfr959,inactive: -0.307
11,GCGGUAUGAGAAGGUUCCATT against 5830461H18Rik,inactive: 0.101
12,CGGUGGUCACUGUGAAAUGTT against Nr1h5,inactive: -0.0299
13,GGAAGAUGACAACUUAUCUTT against D930031B21Rik,inactive: -0.851
14,GCCUUUUAGGACAGACUCUTT against AU040320,inactive: -1.66
15,CCUUGGACCCGAUGUUCUUTT against Slc22a12,inactive: -0.535
16,GCUGCUCAAACAUAAUGAATT against Osbpl2,inactive: 0.508
17,GGAAGGCUAUACACACCUUTT against Crisp1,inactive: 1.26
18,GGAGAAAUUCAAACAAGUATT against 4930503B20Rik,inactive: 0.433
19,GGAUUUACCAAGUCUAUUGTT against C130022K22Rik,inactive: -0.274
20,GGUGUGUUUUGUAUUGAUUTT against Olfr843,inactive: -0.196
21,GGCAGGAUCUUUACAUCUCTT against 4733401H21Rik,inactive: 0.396
22,GCAUACAACUGUUCAUAGATT against AI851076,inactive: 0.249

row,Sequence,z-score
1,GGGUGUGUGCUAAUGAACUTT against Tcf2,inactive: 2.14
2,GGCUCAAGUUUGCCAGGAATT against Kcnq2,inactive: -2.98
3,CCUGUCUCCAAUUUUCCUGTT against Olfr1254,inactive: 0.507
4,GCUCAUUCGAGAGGAGAACTT against Nurit,inactive: -1.59
5,GGUAUUAGCAAUUUUCUGGTT against Olfr619,inactive: -0.669
6,GCCCAUAUCGGAGAAGAUUTT against Cap2,inactive: -1.05
7,GCUUCUAAGCUUUAGAGGGTT against 4632411J06Rik,inactive: -0.131
8,GCACGAAAUCAGCAAUGAATT against Ever2,inactive: -1.94
9,CUCGUUAAUCCUGUGAUAUTT against Olfr740,inactive: 0.187
10,GCCAACCUCUGUGUGUAUUTT against Olfr1263,inactive: 0.0351
11,GGUUCACCUACCCAACAAUTT against Mrgpra4,inactive: 1.33
12,CCUCACUGUGGUAACAUUATT against Olfr452,inactive: -1.09
13,CCAAAUCGUCGCCAUUAAGTT against Cdk7,inactive: 0.0843
14,CCCUAGUGAUAAGGAAUGCTT against Cxcl9,inactive: -0.153
15,GUAUCGUUUGAGCAGAUCCTT against Cib1,inactive: 0.862
16,GGAAUUCACAGAAAUAAUGTT against Hmgcs2,inactive: -0.267
17,GGCAGGAAAACUGCCAAUGTT against LOC547347,inactive: -0.166
18,CCUGUAACCUUGCUUAAUGTT against Hoxc6,inactive: 0.401
19,GGAUCUCUAUGCUAACAACTT against Acta2,inactive: 0.00532
20,GCUAUAGCGCGGAAAUGGATT against BC056929,inactive: 0.969
21,GCACCUAGAUUGAUUGCAGTT against Olfr1186,inactive: -1.09
22,GCUGAUUGCCUCGGAGAAUTT against Shmt1,inactive: 1.13

row,Sequence,z-score
1,GGAAGGUAUGGUACGAUGUTT against Rock1,inactive: -0.397
2,CGAAGCUCAACAGAUUCCUTT against Prlpf,inactive: 0.0664
3,GGCAAGUUCAAUAAAAUGUTT against Biklk,inactive: 0.792
4,GGAUGCAUGUCAUGUUUACTT against E430012M05Rik,inactive: -1.62
5,CCUGAUAGAAAAUCUCGACTT against Pld1,inactive: -0.379
6,GCAAGAGAAAUCCACGACUTT against Ncoa1,inactive: 0.527
7,GGUUUUCCACUCUUAUGGCTT against V1rb2,inactive: -0.163
8,AAUGCAAACAAUGCAAAUGTT against Mt2,inactive: 0.316
9,GGUCUUGGACCUCAGGAAGTT against 3110040N11Rik,inactive: 1.06
10,GGAGAAAGUCAAGACCCUCTT against Jund1,inactive: 0.286
11,AACUUUCCUGCUCUAACACTT against Olfr930,inactive: -1.61
12,GGCACCAUUGAAAUUCUGATT against Arbp,inactive: -1.91
13,GCCCAUGGACACAUCCAGUTT against Slc24a6,inactive: -2.19
14,GGCAGAUCAACCUCAGCAATT against AL033314,inactive: 0.531
15,GGGUACUGCUUCAACCAACTT against P2rx3,inactive: -0.0863
16,GGAGAGGGAUCAUAGAAAATT against Hey2,inactive: 1.59
17,GGAAUGUGGUUUCCUGUUATT against Fscn3,inactive: -0.609
18,GGACUUCGUGUUCAUACAUTT against Tmie,inactive: -1.08
19,CCUUCGUAGCCUGUAUCAUTT against Myadm,inactive: -0.25
20,GCUCAUGUCCUAUAUUCAATT against Scfd2,inactive: 0.514
21,GGAAGUCGCCUACAUCCUUTT against Lenep,inactive: 0.573
22,CGUGGGUACAAUCAGAUAATT against C130032J12Rik,inactive: -0.485

# 3 records picked at random from those above:
row,Sequence,z-score
1,GGAAGGUAUGGUACGAUGUTT against Rock1,inactive: -0.397
21,GGAAGUCGCCUACAUCCUUTT against Lenep,inactive: 0.573
12,GGCACCAUUGAAAUUCUGATT against Arbp,inactive: -1.91
